Measurements: PMC12268039
No constants are given. Whether binding was seen depends on the method and setting. In cells and extracts the contact can be indirect. Some results given as binding are weak or reduced against the parent protein; the word gives no strength. Tags and fused reporters may be left off the sequences shown.

T1: HA-tagged PLIN2 (perilipin-2) (human) (UniProt Q99541)
T1 sequence: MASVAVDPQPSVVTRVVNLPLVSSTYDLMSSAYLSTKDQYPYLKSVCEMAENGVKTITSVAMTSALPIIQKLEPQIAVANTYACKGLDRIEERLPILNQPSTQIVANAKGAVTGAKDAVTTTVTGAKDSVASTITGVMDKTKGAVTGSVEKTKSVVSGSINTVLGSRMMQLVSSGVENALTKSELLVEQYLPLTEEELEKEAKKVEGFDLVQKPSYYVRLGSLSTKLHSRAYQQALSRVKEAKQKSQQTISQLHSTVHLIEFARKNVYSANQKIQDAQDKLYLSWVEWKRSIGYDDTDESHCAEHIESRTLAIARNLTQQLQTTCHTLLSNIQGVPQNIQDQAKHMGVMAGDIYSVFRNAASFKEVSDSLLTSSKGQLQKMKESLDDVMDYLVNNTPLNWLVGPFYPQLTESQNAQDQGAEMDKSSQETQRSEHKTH

T2: Flag-tagged UBR1 (human), Q8IWV7
T2 chain: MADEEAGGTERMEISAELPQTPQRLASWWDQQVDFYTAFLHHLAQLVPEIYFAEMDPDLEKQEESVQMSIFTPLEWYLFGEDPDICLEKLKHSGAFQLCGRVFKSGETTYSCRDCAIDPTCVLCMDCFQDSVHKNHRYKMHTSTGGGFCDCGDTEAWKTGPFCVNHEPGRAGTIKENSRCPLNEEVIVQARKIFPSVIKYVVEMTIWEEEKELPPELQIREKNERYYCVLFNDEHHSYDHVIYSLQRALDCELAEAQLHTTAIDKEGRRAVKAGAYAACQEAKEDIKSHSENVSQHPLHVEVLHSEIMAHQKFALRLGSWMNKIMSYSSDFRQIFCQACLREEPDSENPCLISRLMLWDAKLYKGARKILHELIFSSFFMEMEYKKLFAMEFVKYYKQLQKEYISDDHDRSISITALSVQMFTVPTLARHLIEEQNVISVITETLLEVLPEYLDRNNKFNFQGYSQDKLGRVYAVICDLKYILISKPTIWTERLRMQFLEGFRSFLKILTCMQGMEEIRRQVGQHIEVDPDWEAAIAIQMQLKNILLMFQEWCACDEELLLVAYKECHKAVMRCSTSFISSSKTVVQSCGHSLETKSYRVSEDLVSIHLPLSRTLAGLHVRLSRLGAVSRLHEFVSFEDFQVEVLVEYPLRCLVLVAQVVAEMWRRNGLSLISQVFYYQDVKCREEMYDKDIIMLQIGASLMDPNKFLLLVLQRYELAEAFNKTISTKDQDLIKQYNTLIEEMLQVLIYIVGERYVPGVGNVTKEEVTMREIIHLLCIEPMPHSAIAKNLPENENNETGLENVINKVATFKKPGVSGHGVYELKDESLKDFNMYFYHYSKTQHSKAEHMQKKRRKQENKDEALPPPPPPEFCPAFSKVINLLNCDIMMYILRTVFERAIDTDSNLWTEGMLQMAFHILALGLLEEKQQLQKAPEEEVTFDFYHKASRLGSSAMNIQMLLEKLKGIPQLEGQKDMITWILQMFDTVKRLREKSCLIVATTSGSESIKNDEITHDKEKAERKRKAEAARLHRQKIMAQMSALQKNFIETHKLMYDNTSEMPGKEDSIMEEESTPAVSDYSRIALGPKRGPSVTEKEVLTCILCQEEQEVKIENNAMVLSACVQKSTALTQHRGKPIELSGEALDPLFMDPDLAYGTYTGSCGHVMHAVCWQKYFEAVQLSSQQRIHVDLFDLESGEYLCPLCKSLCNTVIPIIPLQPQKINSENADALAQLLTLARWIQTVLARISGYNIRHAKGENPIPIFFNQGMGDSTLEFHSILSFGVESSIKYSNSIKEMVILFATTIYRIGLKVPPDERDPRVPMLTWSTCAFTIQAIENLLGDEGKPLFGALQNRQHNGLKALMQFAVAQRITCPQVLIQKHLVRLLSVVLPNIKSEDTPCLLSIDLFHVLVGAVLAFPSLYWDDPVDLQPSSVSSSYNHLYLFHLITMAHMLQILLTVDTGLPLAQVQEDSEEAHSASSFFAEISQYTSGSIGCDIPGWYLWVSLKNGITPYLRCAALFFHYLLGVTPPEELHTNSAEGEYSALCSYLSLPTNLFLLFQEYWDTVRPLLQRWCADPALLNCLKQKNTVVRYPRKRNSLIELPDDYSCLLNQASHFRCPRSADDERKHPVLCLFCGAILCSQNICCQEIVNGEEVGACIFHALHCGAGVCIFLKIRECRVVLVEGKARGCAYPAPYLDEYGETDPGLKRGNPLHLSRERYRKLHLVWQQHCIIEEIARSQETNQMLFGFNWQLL

B1: Flag-tagged MARCH6 (enzyme, UniProt O60337 1-910)
chain: MDTAEEDICRVCRSEGTPEKPLYHPCVCTGSIKFIHQECLVQWLKHSRKEYCELCKHRFAFTPIYSPDMPSRLPIQDIFAGLVTSIGTAIRYWFHYTLVAFAWLGVVPLTACRIYKCLFTGSVSSLLTLPLDMLSTENLLADCLQGCFVVTCTLCAFISLVWLREQIVHGGAPIWLEHAAPPFNAAGHHQNEAPAGGNGAENVAADQPANPPAENAVVGENPDAQDDQAEEEEEDNEEEDDAGVEDAADANNGAQDDMNWNALEWDRAAEELTWERMLGLDGSLVFLEHVFWVVSLNTLFILVFAFCPYHIGHFSLVGLGFEEHVQASHFEGLITTIVGYILLAITLIICHGLATLVKFHRSRRLLGVCYIVVKVSLLVVVEIGVFPLICGWWLDICSLEMFDATLKDRELSFQSAPGTTMFLHWLVGMVYVFYFASFILLLREVLRPGVLWFLRNLNDPDFNPVQEMIHLPIYRHLRRFILSVIVFGSIVLLMLWLPIRIIKSVLPNFLPYNVMLYSDAPVSELSLELLLLQVVLPALLEQGHTRQWLKGLVRAWTVTAGYLLDLHSYLLGDQEENENSANQQVNNNQHARNNNAIPVVGEGLHAAHQAILQQGGPVGFQPYRRPLNFPLRIFLLIVFMCITLLIASLICLTLPVFAGRWLMSFWTGTAKIHELYTAACGLYVCWLTIRAVTVMVAWMPQGRRVIFQKVKEWSLMIMKTLIVAVLLAGVVPLLLGLLFELVIVAPLRVPLDQTPLFYPWQDWALGVLHAKIIAAITLMGPQWWLKTVIEQVYANGIRNIDLHYIVRKLAAPVISVLLLSLCVPYVIASGVVPLLGVTAEMQNLVHRRIYPFLLMVVVLMAILSFQVRQFKRLYEHIKNDKYLVGQRLVNYERKSGKQGSSPPPPQSSQE
B2: HA-tagged PLIN2 (perilipin-2), Q99541 1-437 (protein)
chain: T1 sequence

Key:
[1] = biological target: T1, HA-tagged PLIN2 (perilipin-2) (human); experiment: co-IP; HEK 293T cells transfected with the indicated plasmids, treated with DMSO or daclatasvir (10 μM) for 12 h; IP lysis buffer (20 mM Tris-HCl pH 7.4, 150 mM NaCl, 1 mM EDTA, 1% NP-40); lysate with protein A/G agarose beads and the indicated antibody overnight at 4°C; Western blot
[2] = biological target: T2, Flag-tagged UBR1 (human), Q8IWV7; experiment: as above; conditions: remark: other sources report otherwise

Row | Binder | binding [1] | binding [2]
1 | B1 | binds | –
2 | B2 | – | binds
